No constants are given. Whether binding was seen depends on the method and setting. Binding seen in cells or lysates may run through a third protein. Some results given as binding are weak or reduced against the parent protein; the word gives no strength. For part of these data: Sequences can lack the tags named with a protein.
What was measured:
FLAG-TAPP1 [1] = molecular target: FLAG-TAPP1 (UniProt Q9HB21); assay: co-expression binding assay in 293 cells; glutathione-Sepharose pull-down, anti-FLAG immunoblot
FLAG-TAPP2 [2] = molecular target: T1, FLAG-TAPP2 (UniProt Q9HB19); assay: as above
T1 sequence (looked up): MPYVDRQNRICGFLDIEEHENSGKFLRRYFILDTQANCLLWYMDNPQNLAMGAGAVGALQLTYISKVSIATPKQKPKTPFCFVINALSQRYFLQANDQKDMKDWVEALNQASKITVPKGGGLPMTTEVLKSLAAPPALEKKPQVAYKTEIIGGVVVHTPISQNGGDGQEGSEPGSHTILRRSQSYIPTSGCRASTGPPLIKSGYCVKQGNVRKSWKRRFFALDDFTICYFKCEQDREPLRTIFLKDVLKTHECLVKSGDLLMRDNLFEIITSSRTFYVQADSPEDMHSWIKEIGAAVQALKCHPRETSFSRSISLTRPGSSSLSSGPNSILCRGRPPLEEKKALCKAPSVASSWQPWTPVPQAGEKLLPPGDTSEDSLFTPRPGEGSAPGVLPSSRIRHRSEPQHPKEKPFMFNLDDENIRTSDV

Chains of the proteins cited; added tags and fusions are not shown. Lines headed by an entry give the natural chain unless they say otherwise; changes in a name come on top.
UniProt Q9HB21: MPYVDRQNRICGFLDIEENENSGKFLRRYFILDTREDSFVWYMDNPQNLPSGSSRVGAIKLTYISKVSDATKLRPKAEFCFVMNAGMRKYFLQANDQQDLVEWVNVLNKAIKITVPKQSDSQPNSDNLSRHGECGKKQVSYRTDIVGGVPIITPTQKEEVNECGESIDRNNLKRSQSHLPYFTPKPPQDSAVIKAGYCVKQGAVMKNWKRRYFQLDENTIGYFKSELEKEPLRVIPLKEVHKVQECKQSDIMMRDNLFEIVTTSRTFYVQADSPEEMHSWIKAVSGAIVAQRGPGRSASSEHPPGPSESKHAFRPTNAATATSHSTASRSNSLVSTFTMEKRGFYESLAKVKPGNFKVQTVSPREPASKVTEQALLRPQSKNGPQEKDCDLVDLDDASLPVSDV
UniProt Q12923: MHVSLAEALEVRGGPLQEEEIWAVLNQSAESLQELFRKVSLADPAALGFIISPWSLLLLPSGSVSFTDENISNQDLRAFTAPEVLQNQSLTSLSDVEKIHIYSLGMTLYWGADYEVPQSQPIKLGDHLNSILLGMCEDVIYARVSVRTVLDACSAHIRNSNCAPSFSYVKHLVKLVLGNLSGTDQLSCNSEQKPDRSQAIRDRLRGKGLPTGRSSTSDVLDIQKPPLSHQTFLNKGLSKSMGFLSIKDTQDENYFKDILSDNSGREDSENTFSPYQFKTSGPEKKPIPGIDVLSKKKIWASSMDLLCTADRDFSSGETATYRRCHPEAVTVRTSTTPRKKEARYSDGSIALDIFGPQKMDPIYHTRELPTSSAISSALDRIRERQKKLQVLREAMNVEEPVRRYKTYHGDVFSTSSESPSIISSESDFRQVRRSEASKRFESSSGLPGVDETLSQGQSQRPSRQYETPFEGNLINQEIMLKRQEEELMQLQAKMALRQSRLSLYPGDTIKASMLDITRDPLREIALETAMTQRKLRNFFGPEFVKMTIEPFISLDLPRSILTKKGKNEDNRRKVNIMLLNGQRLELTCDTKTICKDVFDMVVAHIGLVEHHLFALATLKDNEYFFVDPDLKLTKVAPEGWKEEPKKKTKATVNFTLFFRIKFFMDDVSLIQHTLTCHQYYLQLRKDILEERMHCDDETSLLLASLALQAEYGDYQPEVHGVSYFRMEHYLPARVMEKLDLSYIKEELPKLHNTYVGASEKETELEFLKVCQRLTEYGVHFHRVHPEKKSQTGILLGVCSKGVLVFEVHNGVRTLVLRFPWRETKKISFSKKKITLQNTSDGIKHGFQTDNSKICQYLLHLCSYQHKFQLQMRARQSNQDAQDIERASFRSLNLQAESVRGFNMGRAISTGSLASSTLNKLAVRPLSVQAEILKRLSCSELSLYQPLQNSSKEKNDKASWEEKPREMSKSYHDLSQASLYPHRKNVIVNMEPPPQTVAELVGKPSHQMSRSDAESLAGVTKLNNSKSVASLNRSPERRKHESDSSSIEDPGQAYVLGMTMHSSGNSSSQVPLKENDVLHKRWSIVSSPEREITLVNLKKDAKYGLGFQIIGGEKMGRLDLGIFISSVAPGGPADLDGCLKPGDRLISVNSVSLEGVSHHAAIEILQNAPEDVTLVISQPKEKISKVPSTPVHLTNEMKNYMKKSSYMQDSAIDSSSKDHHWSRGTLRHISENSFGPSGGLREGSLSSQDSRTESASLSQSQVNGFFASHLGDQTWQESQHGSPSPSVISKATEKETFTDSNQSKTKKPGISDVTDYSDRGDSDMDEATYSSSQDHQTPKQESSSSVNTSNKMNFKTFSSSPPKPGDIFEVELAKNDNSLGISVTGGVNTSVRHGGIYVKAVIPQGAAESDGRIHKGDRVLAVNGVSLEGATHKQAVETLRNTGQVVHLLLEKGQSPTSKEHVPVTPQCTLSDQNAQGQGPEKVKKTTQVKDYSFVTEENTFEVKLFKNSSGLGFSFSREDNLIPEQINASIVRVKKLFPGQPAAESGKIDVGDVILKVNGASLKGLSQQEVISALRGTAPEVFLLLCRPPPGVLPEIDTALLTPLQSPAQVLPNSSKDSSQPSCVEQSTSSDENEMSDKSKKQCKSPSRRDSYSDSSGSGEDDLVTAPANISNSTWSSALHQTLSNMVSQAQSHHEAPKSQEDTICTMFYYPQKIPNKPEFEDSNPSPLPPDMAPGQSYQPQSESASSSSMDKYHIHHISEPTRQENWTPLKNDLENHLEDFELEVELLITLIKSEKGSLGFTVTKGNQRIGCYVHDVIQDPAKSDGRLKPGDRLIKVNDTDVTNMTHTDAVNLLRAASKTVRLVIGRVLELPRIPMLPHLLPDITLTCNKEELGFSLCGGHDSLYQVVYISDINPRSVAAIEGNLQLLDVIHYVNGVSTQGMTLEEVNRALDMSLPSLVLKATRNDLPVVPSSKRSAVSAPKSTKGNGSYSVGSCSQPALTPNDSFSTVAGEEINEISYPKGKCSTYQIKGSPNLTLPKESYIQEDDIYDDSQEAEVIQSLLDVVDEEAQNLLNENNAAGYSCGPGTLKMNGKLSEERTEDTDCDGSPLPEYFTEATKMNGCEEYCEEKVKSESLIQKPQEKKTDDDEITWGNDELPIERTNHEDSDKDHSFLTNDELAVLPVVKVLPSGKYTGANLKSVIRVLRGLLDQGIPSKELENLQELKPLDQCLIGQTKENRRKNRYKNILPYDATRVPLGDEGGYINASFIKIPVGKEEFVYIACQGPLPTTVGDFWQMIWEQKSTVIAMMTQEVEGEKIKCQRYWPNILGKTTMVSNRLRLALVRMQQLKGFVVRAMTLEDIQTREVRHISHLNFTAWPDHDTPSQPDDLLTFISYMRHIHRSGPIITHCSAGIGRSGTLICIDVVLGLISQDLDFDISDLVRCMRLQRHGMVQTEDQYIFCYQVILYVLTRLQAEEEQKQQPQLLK

FLAG-TAPP1 [3] = molecular target: FLAG-TAPP1 (UniProt Q9HB21); assay: co-expression in 293 cells; glutathione-Sepharose pull-down, anti-FLAG immunoblot
FLAG-TAPP2 [4] = molecular target: T1, FLAG-TAPP2; assay: as above
FLAG-TAPP1 [5] = molecular target: FLAG-TAPP1 (UniProt Q9HB21); assay: co-expression in 293 cells; glutathione-Sepharose pull-down
FLAG-TAPP2 [6] = molecular target: T1, FLAG-TAPP2; assay: as above
[7] = molecular target: endogenous PTPL1 (Protein Tyrosine Phosphatase Like-Protein-1) of 293 cells (human) (UniProt Q12923); assay: GST pull-down from 293 cells; pNPP phosphatase assay and anti-PTPL1 immunoblot
[8] = molecular target: endogenous PTPL1 (Protein Tyrosine Phosphatase Like-Protein-1) of 293 cells (human) (UniProt Q12923); assay: GST pull-down from 293 cells
[9] = molecular target: endogenous PTPL1 (Protein Tyrosine Phosphatase Like-Protein-1) of 293 cells (human) (UniProt Q12923); assay: GST pull-down from 293 cells; immunoblot with two anti-PTPL1 antibodies
[10] = molecular target: endogenous PTPL1 (Protein Tyrosine Phosphatase Like-Protein-1) of 293 cells (human) (UniProt Q12923); assay: co-immunoprecipitation from 293 cell lysate
[11] = molecular target: endogenous PTPL1 (Protein Tyrosine Phosphatase Like-Protein-1) of 293 cells (human) (UniProt Q12923); assay: reciprocal co-immunoprecipitation from 293 cell lysate; immunoblot
[12] = molecular target: endogenous PTPL1 (Protein Tyrosine Phosphatase Like-Protein-1) of 293 cells (human) (UniProt Q12923); assay: reciprocal co-immunoprecipitation from 293 cell lysate

Measured: binding

GST fusion of the HA tagged 1st PDZ domain of PTPL1 (residues 1099 to 1199) (from UniProt P08515 1-218; Q12923 1099-1199)
binds: FLAG-TAPP1 [1] | FLAG-TAPP2 [2] | FLAG-TAPP1 [3] | FLAG-TAPP2 [4] | FLAG-TAPP1 [5] | FLAG-TAPP2 [6]

GST-TAPP1 (wild type, expressed in 293 cells) (from UniProt P08515 1-218; Q9HB21 1-404)
binds: [7] | [8] | [9]

GST-TAPP2 (wild type, expressed in 293 cells) (from UniProt P08515 1-218; Q9HB19 1-425)
binds: [7] | [8] | [9]

endogenous TAPP1 of 293 cells (from UniProt Q9HB21 1-404)
binds: [10] | [11] | [12]

Reference: patent US20070054328A1
